According to the supplement of paper PMC10849652:
This is one part of the list.

Protein sequences, listed by entry. Tags and fused reporters are not part of them. Lines headed by an entry give the natural chain unless they say otherwise; changes in a name come on top.
UniProt Q96A00: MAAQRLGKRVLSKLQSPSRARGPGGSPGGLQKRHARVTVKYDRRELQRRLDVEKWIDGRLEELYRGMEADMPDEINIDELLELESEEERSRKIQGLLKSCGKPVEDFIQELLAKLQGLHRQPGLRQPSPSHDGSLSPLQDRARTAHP
UniProt Q8TAP8: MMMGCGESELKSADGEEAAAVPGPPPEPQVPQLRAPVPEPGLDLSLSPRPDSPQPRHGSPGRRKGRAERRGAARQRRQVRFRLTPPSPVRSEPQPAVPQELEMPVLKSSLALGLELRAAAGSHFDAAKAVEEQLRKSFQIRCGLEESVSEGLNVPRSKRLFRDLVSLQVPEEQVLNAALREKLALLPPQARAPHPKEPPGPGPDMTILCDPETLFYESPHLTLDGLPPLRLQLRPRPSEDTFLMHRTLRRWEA
UniProt P10644, whole entry, looked up: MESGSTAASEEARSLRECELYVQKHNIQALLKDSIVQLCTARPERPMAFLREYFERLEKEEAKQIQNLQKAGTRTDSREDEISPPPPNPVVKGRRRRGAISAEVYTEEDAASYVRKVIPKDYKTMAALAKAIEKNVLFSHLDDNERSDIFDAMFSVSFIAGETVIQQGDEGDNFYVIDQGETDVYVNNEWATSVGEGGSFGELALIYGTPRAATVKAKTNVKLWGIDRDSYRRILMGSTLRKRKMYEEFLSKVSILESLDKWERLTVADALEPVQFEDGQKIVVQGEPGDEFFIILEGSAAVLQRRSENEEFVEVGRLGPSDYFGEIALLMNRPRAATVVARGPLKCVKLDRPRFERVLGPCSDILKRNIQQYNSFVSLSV
UniProt K7ELL7: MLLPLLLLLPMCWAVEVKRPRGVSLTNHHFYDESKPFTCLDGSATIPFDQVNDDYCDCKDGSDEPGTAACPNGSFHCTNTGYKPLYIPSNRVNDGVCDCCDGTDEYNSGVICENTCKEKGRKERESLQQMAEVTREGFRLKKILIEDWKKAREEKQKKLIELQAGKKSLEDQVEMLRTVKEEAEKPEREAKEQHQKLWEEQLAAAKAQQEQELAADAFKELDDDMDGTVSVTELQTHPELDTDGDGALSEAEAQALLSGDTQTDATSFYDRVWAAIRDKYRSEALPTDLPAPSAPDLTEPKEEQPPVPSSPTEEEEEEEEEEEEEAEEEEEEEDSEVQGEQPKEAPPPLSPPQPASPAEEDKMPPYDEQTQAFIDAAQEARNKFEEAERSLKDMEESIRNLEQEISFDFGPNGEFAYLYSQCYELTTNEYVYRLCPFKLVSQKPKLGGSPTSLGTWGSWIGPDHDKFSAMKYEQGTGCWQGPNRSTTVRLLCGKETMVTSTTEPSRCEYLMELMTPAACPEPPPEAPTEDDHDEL
UniProt Q99873, whole entry, looked up: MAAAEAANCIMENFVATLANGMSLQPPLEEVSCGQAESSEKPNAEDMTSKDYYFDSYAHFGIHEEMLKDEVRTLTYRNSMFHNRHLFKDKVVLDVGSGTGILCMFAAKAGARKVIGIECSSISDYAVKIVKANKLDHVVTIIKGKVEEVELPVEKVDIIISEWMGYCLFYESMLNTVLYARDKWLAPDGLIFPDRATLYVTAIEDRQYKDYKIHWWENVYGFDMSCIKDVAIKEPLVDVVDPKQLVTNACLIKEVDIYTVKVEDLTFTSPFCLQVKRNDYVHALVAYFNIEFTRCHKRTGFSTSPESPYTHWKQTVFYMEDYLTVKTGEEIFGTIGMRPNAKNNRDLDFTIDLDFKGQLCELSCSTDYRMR
UniProt P63151: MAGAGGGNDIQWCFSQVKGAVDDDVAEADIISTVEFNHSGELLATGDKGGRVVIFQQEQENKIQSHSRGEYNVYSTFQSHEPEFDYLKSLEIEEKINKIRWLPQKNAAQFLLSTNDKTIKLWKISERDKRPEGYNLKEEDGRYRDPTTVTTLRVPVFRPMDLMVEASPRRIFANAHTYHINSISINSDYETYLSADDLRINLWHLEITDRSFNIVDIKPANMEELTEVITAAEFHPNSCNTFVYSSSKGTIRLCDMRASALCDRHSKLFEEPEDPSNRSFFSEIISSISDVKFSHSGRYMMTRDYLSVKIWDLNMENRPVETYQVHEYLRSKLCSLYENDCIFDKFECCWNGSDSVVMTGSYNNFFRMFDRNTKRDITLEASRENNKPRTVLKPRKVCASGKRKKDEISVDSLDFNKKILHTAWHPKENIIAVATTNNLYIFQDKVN
UniProt O60828: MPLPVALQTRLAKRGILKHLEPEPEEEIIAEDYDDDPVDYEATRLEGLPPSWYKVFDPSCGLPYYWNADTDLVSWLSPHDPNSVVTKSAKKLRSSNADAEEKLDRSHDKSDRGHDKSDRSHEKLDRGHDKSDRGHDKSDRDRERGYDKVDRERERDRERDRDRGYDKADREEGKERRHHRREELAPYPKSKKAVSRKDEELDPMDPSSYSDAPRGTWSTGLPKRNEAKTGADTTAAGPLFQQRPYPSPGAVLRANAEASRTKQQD
UniProt P30048: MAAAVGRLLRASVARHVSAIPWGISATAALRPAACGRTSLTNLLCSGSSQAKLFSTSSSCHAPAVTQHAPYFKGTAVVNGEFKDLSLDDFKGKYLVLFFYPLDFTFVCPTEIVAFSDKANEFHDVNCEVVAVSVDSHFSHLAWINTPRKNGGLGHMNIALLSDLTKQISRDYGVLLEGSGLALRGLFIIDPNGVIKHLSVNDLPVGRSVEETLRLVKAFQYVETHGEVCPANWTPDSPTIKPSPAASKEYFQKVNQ
UniProt O14974: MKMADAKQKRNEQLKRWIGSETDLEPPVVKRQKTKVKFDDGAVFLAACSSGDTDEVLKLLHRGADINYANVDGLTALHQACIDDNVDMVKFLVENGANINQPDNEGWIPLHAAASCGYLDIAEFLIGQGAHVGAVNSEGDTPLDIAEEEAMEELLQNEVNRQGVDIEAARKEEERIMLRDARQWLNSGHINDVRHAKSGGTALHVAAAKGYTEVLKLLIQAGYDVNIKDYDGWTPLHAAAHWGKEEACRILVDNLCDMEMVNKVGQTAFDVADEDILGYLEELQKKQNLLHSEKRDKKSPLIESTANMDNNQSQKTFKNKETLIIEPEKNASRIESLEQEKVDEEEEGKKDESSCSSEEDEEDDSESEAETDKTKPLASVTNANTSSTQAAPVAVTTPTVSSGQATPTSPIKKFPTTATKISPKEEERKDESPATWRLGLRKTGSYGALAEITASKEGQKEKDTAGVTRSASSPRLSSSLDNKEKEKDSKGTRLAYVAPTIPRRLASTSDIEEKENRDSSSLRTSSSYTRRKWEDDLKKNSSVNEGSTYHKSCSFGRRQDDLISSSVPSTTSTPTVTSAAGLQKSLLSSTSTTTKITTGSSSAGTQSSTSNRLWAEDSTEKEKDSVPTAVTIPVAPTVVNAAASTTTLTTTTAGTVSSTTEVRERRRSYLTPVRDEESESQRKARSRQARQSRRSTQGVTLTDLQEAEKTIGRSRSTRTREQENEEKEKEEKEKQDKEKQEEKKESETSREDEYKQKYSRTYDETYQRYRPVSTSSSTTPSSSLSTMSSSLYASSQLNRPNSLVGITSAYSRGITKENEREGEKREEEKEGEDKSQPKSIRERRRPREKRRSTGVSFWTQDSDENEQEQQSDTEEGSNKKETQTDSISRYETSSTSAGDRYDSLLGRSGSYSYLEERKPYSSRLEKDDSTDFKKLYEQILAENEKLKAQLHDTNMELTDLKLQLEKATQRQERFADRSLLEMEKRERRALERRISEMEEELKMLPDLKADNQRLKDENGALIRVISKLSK
UniProt Q8WWY3: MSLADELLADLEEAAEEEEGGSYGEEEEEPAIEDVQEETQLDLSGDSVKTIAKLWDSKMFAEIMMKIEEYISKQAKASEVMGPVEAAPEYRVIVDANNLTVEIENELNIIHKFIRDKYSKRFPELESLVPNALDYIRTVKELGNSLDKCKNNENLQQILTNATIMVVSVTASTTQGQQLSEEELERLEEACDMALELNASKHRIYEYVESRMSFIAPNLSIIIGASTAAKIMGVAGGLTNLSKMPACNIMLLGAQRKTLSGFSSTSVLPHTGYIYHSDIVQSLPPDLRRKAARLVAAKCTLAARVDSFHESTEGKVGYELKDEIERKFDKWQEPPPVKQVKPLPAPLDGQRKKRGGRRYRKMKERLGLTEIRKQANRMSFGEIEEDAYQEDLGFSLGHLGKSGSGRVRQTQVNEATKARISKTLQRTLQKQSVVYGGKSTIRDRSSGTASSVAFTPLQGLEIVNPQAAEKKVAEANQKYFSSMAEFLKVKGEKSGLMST
UniProt O00743: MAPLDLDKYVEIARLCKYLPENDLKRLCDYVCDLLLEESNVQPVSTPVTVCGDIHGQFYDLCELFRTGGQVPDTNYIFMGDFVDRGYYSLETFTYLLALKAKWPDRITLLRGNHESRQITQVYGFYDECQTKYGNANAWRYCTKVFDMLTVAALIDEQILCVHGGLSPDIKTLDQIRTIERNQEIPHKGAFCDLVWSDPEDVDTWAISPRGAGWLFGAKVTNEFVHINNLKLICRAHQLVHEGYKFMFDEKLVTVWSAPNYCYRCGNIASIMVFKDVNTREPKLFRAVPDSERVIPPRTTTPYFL
UniProt O43172: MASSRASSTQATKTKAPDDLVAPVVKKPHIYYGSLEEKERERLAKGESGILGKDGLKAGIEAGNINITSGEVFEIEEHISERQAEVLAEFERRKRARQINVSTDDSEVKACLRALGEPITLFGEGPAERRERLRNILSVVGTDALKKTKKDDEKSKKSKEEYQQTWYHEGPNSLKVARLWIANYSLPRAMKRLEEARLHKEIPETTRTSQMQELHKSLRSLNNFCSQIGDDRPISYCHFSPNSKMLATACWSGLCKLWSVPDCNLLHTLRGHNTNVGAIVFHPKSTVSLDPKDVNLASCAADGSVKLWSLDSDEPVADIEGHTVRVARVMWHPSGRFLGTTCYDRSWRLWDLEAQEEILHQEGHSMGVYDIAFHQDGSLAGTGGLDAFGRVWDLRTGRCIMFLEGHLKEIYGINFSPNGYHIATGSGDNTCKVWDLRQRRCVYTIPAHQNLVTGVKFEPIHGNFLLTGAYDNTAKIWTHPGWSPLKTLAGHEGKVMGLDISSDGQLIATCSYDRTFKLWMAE
UniProt O43447: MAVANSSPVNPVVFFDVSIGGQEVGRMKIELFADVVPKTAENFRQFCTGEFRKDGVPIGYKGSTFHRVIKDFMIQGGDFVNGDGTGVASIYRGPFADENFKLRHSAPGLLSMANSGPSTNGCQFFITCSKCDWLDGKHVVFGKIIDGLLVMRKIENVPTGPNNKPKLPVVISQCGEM
UniProt O43395: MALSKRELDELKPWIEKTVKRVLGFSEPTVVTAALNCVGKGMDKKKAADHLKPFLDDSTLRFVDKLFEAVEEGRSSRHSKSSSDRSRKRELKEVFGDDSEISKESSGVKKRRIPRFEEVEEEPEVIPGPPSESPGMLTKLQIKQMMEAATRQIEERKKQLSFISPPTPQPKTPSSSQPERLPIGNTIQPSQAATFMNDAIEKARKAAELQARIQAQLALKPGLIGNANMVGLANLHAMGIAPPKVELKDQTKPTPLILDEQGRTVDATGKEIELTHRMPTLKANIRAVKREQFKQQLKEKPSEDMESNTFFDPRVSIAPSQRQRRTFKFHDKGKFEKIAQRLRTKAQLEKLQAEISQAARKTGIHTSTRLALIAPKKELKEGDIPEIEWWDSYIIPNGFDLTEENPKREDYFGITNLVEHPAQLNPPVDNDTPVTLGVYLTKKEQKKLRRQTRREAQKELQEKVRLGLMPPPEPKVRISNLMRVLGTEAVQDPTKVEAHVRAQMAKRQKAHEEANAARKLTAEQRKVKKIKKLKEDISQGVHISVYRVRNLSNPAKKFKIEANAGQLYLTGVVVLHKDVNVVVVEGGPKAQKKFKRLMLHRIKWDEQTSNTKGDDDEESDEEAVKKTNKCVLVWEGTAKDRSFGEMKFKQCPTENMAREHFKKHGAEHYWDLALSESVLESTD
UniProt Q5VTL8: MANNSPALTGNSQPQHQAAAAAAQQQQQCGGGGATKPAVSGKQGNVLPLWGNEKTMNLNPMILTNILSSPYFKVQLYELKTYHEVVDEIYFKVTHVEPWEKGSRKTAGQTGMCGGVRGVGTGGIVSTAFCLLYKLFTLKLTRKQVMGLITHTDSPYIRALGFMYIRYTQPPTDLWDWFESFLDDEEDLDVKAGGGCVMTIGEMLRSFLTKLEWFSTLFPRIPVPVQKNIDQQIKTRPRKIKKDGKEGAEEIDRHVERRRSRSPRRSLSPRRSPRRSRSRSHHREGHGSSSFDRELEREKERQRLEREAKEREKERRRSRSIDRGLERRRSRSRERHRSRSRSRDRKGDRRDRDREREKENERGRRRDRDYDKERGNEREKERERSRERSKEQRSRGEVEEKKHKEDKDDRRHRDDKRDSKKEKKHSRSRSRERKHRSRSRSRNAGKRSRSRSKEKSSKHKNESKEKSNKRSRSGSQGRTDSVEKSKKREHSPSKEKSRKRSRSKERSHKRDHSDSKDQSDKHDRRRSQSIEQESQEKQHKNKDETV
UniProt Q9Y3C6: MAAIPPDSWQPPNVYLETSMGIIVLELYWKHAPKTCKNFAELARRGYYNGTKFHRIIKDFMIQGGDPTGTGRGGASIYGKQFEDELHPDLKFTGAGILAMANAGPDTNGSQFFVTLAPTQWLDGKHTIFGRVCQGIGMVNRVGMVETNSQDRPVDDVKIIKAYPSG

Columns and labels:
Assay in all cases: log2 fold change, soluble protein after heating vs DMSO (PISA); higher = thermal stabilisation; K562 lysate, 10 uM; active = over 0.2 and 3.5 SD of the protein, either way, in both replicates (recomputed)
alvocidib = compound: CN1CC[C@H](c2c(O)cc(O)c3c(=O)cc(-c4ccccc4Cl)oc23)[C@H](O)C1 [alvocidib]
Summary of the method: (§1)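 Soluble protein was defined as the supernatant remaining after 21,000xg for 90 min, following pooling of heated aliquots and adjustment to 0.5% NP-40 at 4°C. Before that, crude K562 extract at 1 mg/mL protein in PBS pH 7.4 with 1 mM MgCl2 was treated with 10 μM compound for 30 min and heated for 3 min across 48°C-58°C. Quantification used TMTpro 16plex LC-MS/MS with channel sums equalised, and values are log-two fold changes in thermal stability relative to solvent controls from duplicates.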

Tubastatin A = compound: CN1CCc2c(c3ccccc3n2Cc2ccc(C(=O)NO)cc2)C1 [Tubastatin A]
Summary of the method: as §1

[1] = compound: CNC(=O)C1=CC=CC=C1NC2=NC(=NC=C2Cl)NC3=C(C=C(C=C3)N4CCOCC4)OC
Summary of the method: as §1

defactinib = compound: CNC(=O)c1ccc(Nc2ncc(C(F)(F)F)c(NCc3nccnc3N(C)S(C)(=O)=O)n2)cc1 [defactinib]
Summary of the method: as §1

[2] = compound: CNc1nc(-c2ccc3c(N)n[nH]c3c2)cc(N2C[C@@H](C(=O)NC3CCCCC3)CC[C@H]2C)n1
Summary of the method: as §1

encorafenib = compound: COC(=O)N[C@@H](C)CNc1nccc(-c2cn(C(C)C)nc2-c2cc(Cl)cc(NS(C)(=O)=O)c2F)n1 [encorafenib]
Summary of the method: as §1

[3] = compound: COC(=O)[C@H](CCSC)NC(=O)C1=C(C=C(C=C1)NC[C@H](CS)N)C2=CC=CC=C2
Summary of the method: as §1

alisertib = compound: COc1cc(Nc2ncc3c(n2)-c2ccc(Cl)cc2C(c2c(F)cccc2OC)=NC3)ccc1C(=O)O [alisertib]
Summary of the method: as §1

[4] = compound: COc1cc2nc(-c3cc(F)ccc3O)nc(N[C@@H]3CNC[C@H]3C(C)(C)O)c2cc1OC
Summary of the method: as §1

gefitinib = compound: COc1cc2ncnc(Nc3ccc(F)c(Cl)c3)c2cc1OCCCN1CCOCC1 [gefitinib]
Summary of the method: as §1

Measured: log2 fold change

PPP1R14A (UniProt Q96A00)
inactive: alvocidib -0.016 | Tubastatin A 0.054 | [1] -0.026 | defactinib -0.003 | [2] 0.089 | encorafenib 0.002 | [3] 0.002 | alisertib 0.028 | [4] 0.052 | gefitinib -0.026

PPME1 isoform 4 (UniProt Q9Y570)
inactive: alvocidib 0.01 | Tubastatin A 0.024 | [1] 0.008 | defactinib 0.024 | [2] 0.002 | encorafenib -0.001 | [3] -0.066 | alisertib 0.031 | [4] 0.005 | gefitinib 0.002

PREPL (UniProt Q4J6C6)
inactive: alvocidib -0.002 | Tubastatin A 0.034 | [1] -0.01 | defactinib 0.006 | [2] -0.017 | encorafenib 0.002 | [3] -0.02 | alisertib -0.027 | [4] -0.002 | gefitinib 0.002

PPP1R35 (UniProt Q8TAP8)
inactive: alvocidib -0.147 | Tubastatin A 0.022 | [1] 0.032 | defactinib -0.023 | [2] -0.025 | encorafenib 0.099 | [3] -0.025 | alisertib -0.06 | [4] -0.026 | gefitinib -0.084

PPP1R9B (UniProt Q96SB3)
inactive: alvocidib 0.059 | Tubastatin A 0.056 | [1] 0.039 | defactinib 0.018 | [2] 0.021 | encorafenib 0.002 | [3] 0.006 | alisertib 0.025 | [4] -0.01 | gefitinib 0.01

PRKAR1A (UniProt P10644)
inactive: alvocidib 0.004 | Tubastatin A -0.048 | [1] -0.049 | defactinib 0.004 | [2] -0.088 | encorafenib 0.012 | [3] 0.042 | alisertib -0.015 | [4] 0.019 | gefitinib -0.015

PRDX6 (UniProt P30041)
inactive: alvocidib 0.012 | Tubastatin A 0.037 | [1] 0.01 | defactinib -0.014 | [2] 0.031 | encorafenib -0.014 | [3] -0.063 | alisertib 0.009 | [4] 0.004 | gefitinib -0.035

PPP4C (UniProt P60510)
inactive: alvocidib 0.021 | Tubastatin A 0.072 | [1] 0.013 | defactinib -0.03 | [2] 0.057 | encorafenib 0.027 | [3] -0.106 | alisertib 0.015 | [4] 0.002 | gefitinib -0.005

PRKCSH (UniProt K7ELL7)
inactive: alvocidib 0.048 | Tubastatin A 0.073 | [1] -0.026 | defactinib 0.006 | [2] -0.013 | encorafenib 0.048 | [3] -0.002 | alisertib 0.018 | [4] 0.083 | gefitinib -0.12

PRMT1 (UniProt Q99873)
inactive: alvocidib -0.074 | Tubastatin A -0.046 | [1] -0.011 | defactinib -0.028 | [2] 0.03 | encorafenib -0.013 | [3] -0.035 | alisertib 0.015 | [4] 0.023 | gefitinib -0.02

PRDX2 (UniProt P32119)
inactive: alvocidib -0.066 | Tubastatin A 0.051 | [1] -0.019 | defactinib -0.021 | [2] 0.086 | encorafenib -0.008 | [3] -0.014 | alisertib 0.003 | [4] 0.012 | gefitinib 0.004

PRKRA (UniProt O75569)
inactive: alvocidib 0.024 | Tubastatin A -0.254 | [1] 0.028 | defactinib 0.02 | [2] -0.009 | encorafenib -0.001 | [3] 0.146 | alisertib -0.019 | [4] -0.004 | gefitinib -0.006

PPP2R2A isoform 2 (UniProt P63151)
inactive: alvocidib -0.021 | Tubastatin A 0.067 | [1] 0 | defactinib -0.049 | [2] -0.017 | encorafenib -0.005 | [3] -0.037 | alisertib 0.012 | [4] 0.028 | gefitinib -0.002

PQBP1 (UniProt O60828)
inactive: alvocidib -0.017 | Tubastatin A 0.057 | [1] 0.004 | defactinib -0.002 | [2] 0.069 | encorafenib 0.027 | [3] -0.086 | alisertib 0.007 | [4] -0.008 | gefitinib 0.02

PRKD2 isoform 3 (UniProt Q9BZL6)
inactive: alvocidib 0.01 | Tubastatin A -0.145 | [1] -0.125 | defactinib 0.24 | [2] 0.024 | encorafenib 0.091 | [3] -0.001 | alisertib -0.028 | [4] 0.238 | gefitinib -0.165

PRDX3 (UniProt P30048)
inactive: alvocidib 0.007 | Tubastatin A 0.035 | [1] 0.007 | defactinib 0.008 | [2] 0.02 | encorafenib -0.035 | [3] 0.007 | alisertib -0.026 | [4] 0.013 | gefitinib -0.06

PPP1R12A (UniProt O14974)
inactive: alvocidib 0.008 | Tubastatin A -0.046 | [1] 0.01 | defactinib 0.012 | [2] 0.008 | encorafenib 0.008 | [3] -0.023 | alisertib 0.019 | [4] -0.014 | gefitinib -0.006

PRPF31 (UniProt Q8WWY3)
inactive: alvocidib 0.023 | Tubastatin A -0.146 | [1] 0.012 | defactinib 0.057 | [2] -0.041 | encorafenib -0.013 | [3] 0.014 | alisertib 0 | [4] -0.027 | gefitinib 0.007

PPP2R1B isoform 2 (UniProt P30154)
inactive: alvocidib 0.018 | Tubastatin A -0.034 | [1] -0.044 | defactinib -0.028 | [2] -0.016 | encorafenib -0.001 | [3] 0.018 | alisertib 0.003 | [4] 0.005 | gefitinib -0.011

PPP6C isoform 3 (UniProt O00743)
inactive: alvocidib -0.007 | Tubastatin A -0.015 | [1] -0.005 | defactinib 0.002 | [2] -0.077 | encorafenib -0.001 | [3] -0.104 | alisertib -0.012 | [4] 0.003 | gefitinib -0.006

PRPF4 (UniProt O43172)
inactive: alvocidib 0.078 | Tubastatin A 0.015 | [1] 0.027 | defactinib -0.028 | [2] 0.049 | encorafenib -0.018 | [3] 0.008 | alisertib 0.008 | [4] -0.006 | gefitinib -0.032

PPIH (UniProt O43447)
inactive: alvocidib 0.019 | Tubastatin A 0.011 | [1] 0.007 | defactinib 0.003 | [2] -0.057 | encorafenib -0.035 | [3] 0.056 | alisertib 0.022 | [4] 0 | gefitinib -0.005

PPT2 isoform 3 (UniProt Q9UMR5)
inactive: alvocidib -0.051 | Tubastatin A 0.014 | [1] -0.005 | defactinib -0.067 | [2] 0 | encorafenib -0.014 | [3] 0.059 | alisertib 0.013 | [4] 0.015 | gefitinib 0.031

PRPF3 (UniProt O43395)
inactive: alvocidib 0.041 | Tubastatin A -0.087 | [1] -0.025 | defactinib -0.064 | [2] 0.028 | encorafenib 0.016 | [3] -0.003 | alisertib 0.038 | [4] 0.005 | gefitinib -0.024

Fetched one by one from above, two records:
PPIH (UniProt O43447)
inactive: alvocidib 0.019 | Tubastatin A 0.011 | [1] 0.007 | defactinib 0.003 | [2] -0.057 | encorafenib -0.035 | [3] 0.056 | alisertib 0.022 | [4] 0 | gefitinib -0.005

PPT2 isoform 3 (UniProt Q9UMR5)
inactive: alvocidib -0.051 | Tubastatin A 0.014 | [1] -0.005 | defactinib -0.067 | [2] 0 | encorafenib -0.014 | [3] 0.059 | alisertib 0.013 | [4] 0.015 | gefitinib 0.031

Next part

PPP3CB (UniProt P16298)
inactive: alvocidib -0.025 | Tubastatin A -0.012 | [1] 0.011 | defactinib -0.054 | [2] -0.007 | encorafenib -0.002 | [3] -0.009 | alisertib 0.029 | [4] 0.021 | gefitinib 0.013

PRMT7 (UniProt Q9NVM4)
inactive: alvocidib 0.017 | Tubastatin A -0.069 | [1] 0.024 | defactinib -0.047 | [2] 0.002 | encorafenib 0.012 | alisertib -0.015 | [4] 0.007 | gefitinib 0
active: [3] 0.286

PRPF38B (UniProt Q5VTL8)
inactive: alvocidib -0.008 | Tubastatin A 0.026 | [1] 0.051 | defactinib 0.013 | [2] -0.01 | encorafenib 0.005 | [3] -0.049 | alisertib 0.006 | [4] -0.003 | gefitinib -0.014

PPIL1 (UniProt Q9Y3C6)
inactive: alvocidib 0.021 | Tubastatin A -0.046 | [1] 0.007 | defactinib 0.009 | [2] 0.002 | encorafenib -0.001 | [3] -0.073 | alisertib -0.004 | [4] -0.043 | gefitinib -0.04
